These are yes or no findings as the source states them, for the method shown. Some results given as binding are weak or reduced against the parent protein; the word gives no strength.
Columns and labels:
[1] = molecular target: human interleukin-3 (IL-3) receptor alpha-chain (CD123), on cells (human) (UniProt P26951); assay: method not given
[2] = molecular target: human interleukin-3 (IL-3) receptor alpha-chain (CD123), on cells (human) (UniProt P26951); assay: flow cytometry, MOLM-13 vs MOLM-13 CD123KO, labeled secondary
[3] = molecular target: human interleukin-3 (IL-3) receptor alpha-chain (CD123), on cells (human) (UniProt P26951); assay: flow cytometry (PE-A), 2 µg/mL by the legend (hybridoma supernatants by paragraph 203) + labeled secondary antibody, parental MOLM-13 cells against MOLM-13 CD123KO

Chains of the proteins cited; added tags and fusions are not shown. Residues count along the entry.
UniProt P26951, residues 19-378: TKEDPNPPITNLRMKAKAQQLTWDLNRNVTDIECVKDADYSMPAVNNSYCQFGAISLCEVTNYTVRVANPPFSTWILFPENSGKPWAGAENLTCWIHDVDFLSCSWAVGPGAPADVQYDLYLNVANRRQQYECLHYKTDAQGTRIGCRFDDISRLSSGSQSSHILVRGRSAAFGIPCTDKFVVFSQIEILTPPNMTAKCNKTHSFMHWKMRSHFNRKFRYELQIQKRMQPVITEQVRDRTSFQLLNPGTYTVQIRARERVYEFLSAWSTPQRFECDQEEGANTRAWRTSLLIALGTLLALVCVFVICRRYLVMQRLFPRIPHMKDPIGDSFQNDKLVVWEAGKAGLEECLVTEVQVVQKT

Measured: binding

B1: 123-ATX1G5 (Human anti-CD123 antibody from ATX-GX mouse, Kappa Light Chain) (antibody, V domains shown)
VH: QVQLVQSGSEVKKPGSSVKVSCKASGGTFSSYAISWVRQAPGQGLEWMGGIIPIFGTVTYAQKFQGRVTITADESTNTVYMELSSLRSEDTAVYYCARDDFWTGDYWGQGTLVTVSS
VL: DIQMTQSPSSLSASVGDRVTITCRASQGISNYLAWFQQKPGKAPKSLIYAASSLQSGVPSKFSGSGSGTDFTLTISSLQPEDLATYYCQQYNSYPYTFGQGTKLEIK
binds: [1] | [2] | [3]

Reference: patent US20230295316A1
